Our source for the binding values is publication PMC2776832.

Protein sequences, listed by entry. Tags and fused reporters are not part of them. Lines headed by an entry give the natural chain unless they say otherwise; changes in a name come on top. Residues count along the entry.
UniProt P22646, residues 22-189: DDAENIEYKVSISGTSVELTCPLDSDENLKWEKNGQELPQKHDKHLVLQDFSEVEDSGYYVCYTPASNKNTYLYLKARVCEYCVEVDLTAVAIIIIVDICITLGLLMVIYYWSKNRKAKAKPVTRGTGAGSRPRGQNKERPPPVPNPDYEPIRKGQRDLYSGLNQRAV

No constants are given. Whether binding was seen depends on the method and setting. Some entries that bind do so weakly or less than the wild type.

The assay addresses T1, CD3γ (mouse (endogenous in mouse T cells)) (UniProt P11942).
T1 sequence: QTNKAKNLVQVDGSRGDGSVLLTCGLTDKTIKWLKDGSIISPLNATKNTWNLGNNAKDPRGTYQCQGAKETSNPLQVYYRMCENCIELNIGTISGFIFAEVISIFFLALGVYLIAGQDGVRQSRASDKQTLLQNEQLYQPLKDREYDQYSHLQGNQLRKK
The assay can be described thus: flow cytometry on cells; total CD4+ or CD8+ T cells from spleen and lymph nodes stained with mAb 7D6, specific for the associated CD3γ/ε heterodimer; both partners on the same cell; staining as percent of tgε^WT. Background: In flow cytometry, cells or beads pass a laser one at a time.

For the substance “non-mutated murine CD3ε with c-Myc and flash tags (ε^WT) (from UniProt P22646 22-189)”, the binding entry is “binds”.
